# According to PMC7819943, “Rice protein-binding microarrays: a tool to detect cis-acting elements near promoter regions in rice”:
# The chains behind the UniProt entries cited, without tags or fusion partners.
# UniProt Q0JBA9, entry or part of it: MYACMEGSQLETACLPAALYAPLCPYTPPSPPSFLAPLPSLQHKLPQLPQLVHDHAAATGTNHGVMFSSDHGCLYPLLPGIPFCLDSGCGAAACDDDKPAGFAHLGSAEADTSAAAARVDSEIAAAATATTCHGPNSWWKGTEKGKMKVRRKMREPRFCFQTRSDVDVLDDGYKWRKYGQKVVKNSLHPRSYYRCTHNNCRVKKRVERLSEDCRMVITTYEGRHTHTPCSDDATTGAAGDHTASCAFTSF
# The list shows a part of the results.
# Target: OsWRKY34 (Oryza sativa, UniProt Q0JBA9 1-250)
# Assay: protein-binding microarray (RPBM); PBS, 2% BSA, 51.3 ng/ul salmon testes DNA, 50 uM zinc acetate, 200 nM TF, 25 C, 1 h; high values mean tight binding
# Conditions: protein: recombinant; tags: N-terminal polyhistidine and DsRed monomer fusion (pET32a); label: CyDye5-dUTP incorporated in the synthesized complementary strand; 3' TTTTT single-stranded linker to array surface; dsDNA, one strand shown
# In short: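 The binding signal is fluorescence intensity per feature, in arbitrary units, read on an Axon 4000B scanner. Polyhistidine- and DsRed-tagged transcription factors (N-terminal fusions) from E. coli BL21-CodonPlus were purified on Ni–NTA and applied at 200 nM for 1 h at 25 °C to a double-stranded, BSA-blocked custom Agilent array in buffer with 50 µM zinc acetate.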
row,Sequence,binding signal
1,CTCGTAACACCTACACTACACGTATGAGCTGAACCCACCGCGGAGTCACCTAGTGCAG,8210 fluorescence intensity (a.u.)
2,TCCATCTCACCCTGTGCCATTTGTACTCGCTGCTAGAGTTCGGAGTCACCTAGTGCAG,9020 fluorescence intensity (a.u.)
3,AACCCGCCCGGCCGCCACACACGCCTCTCTAGCTACCCGGCGGAGTCACCTAGTGCAG,8870 fluorescence intensity (a.u.)
4,TCTCCTCGCCATCTTCCTCCGCCACCACCGCCCATTCTCACGGAGTCACCTAGTGCAG,9160 fluorescence intensity (a.u.)
5,CACACCGCCGCCGCCCGCATACGATCCCCGCAACGGACCGCGGAGTCACCTAGTGCAG,8740 fluorescence intensity (a.u.)
6,GACCAGTAGCACCGCCGCTTCTCCGCCGCTCGCTCCGACTCGGAGTCACCTAGTGCAG,9790 fluorescence intensity (a.u.)
7,GGTTTCGGTGGCCATCTCCTGTGGCTGGTGCTTGTATTGTCGGAGTCACCTAGTGCAG,8850 fluorescence intensity (a.u.)
8,TTTCCTTCACTTATCCGGTTCAACATTTTCCTAGTTTATGCGGAGTCACCTAGTGCAG,8700 fluorescence intensity (a.u.)
9,AAGCCAGCCATCCGTTTGCTTCCTCTGCAGCTTGCTCCATCGGAGTCACCTAGTGCAG,10900 fluorescence intensity (a.u.)
10,TTCCTTTTACACCCCATATCCATCGTCCCGCCTTTCTTTCCGGAGTCACCTAGTGCAG,8480 fluorescence intensity (a.u.)
11,TGGTTTTATGTGTGAGTTGGGGTAGTGGCGTTGGTAGGTTCGGAGTCACCTAGTGCAG,11700 fluorescence intensity (a.u.)
12,GTGTGTGTGGTGGTAATGGATAATTGGCGTGTGGTTAACCCGGAGTCACCTAGTGCAG,12300 fluorescence intensity (a.u.)
13,ACCAACCTCTCCCTGTCTATCCCATATTATTCGTCTCCTTCGGAGTCACCTAGTGCAG,9280 fluorescence intensity (a.u.)
14,GTCTCGGCTCCCGCATCCTCGCGAGTTCGCCAGCCGCCGCCGGAGTCACCTAGTGCAG,9940 fluorescence intensity (a.u.)
15,GGTGACTCAGCCCTCAAATCATAGTTGTTGACTAAGTATCCGGAGTCACCTAGTGCAG,9030 fluorescence intensity (a.u.)
16,TTTGTTTTACCATTATTTTGTTCGTCTCGTTAGGATTTGTCGGAGTCACCTAGTGCAG,8030 fluorescence intensity (a.u.)
17,AAATCCCATCAACCCCGCCGCCGCCGCCGCCGCCGCCACCCGGAGTCACCTAGTGCAG,8950 fluorescence intensity (a.u.)
18,GTGGGCCGAGCCTTCTCGTGTGTGGGTAGACTCCATGTCCCGGAGTCACCTAGTGCAG,10500 fluorescence intensity (a.u.)
19,CCGTTTTCATTCCATATACAAACCGCGGCCACCGTTCAAACGGAGTCACCTAGTGCAG,10700 fluorescence intensity (a.u.)
20,GATCCGCATCACTGATTCACTGCACTTCGCCCGCCGTCTGCGGAGTCACCTAGTGCAG,9810 fluorescence intensity (a.u.)
21,CATTTTTGTTTTTTACTGGGAGATTTTTTTTCCTTTTTCTCGGAGTCACCTAGTGCAG,11200 fluorescence intensity (a.u.)

# Quoted from the results shown for reference:
row,Sequence,binding signal
6,GACCAGTAGCACCGCCGCTTCTCCGCCGCTCGCTCCGACTCGGAGTCACCTAGTGCAG,9790 fluorescence intensity (a.u.)
7,GGTTTCGGTGGCCATCTCCTGTGGCTGGTGCTTGTATTGTCGGAGTCACCTAGTGCAG,8850 fluorescence intensity (a.u.)

# (list continues)

row,Sequence,binding signal
1,ATCTATTTCAGTTCTGTTGCTTCTGTATGTTACTAAAAACCGGAGTCACCTAGTGCAG,9510 fluorescence intensity (a.u.)
2,AGTGATGATTGTTGTGCATGCATTTTGTGTCTTTTAGAGACGGAGTCACCTAGTGCAG,14900 fluorescence intensity (a.u.)
3,TTAACACACGAAATTACACGTCAACACTGAATACCATGTCCGGAGTCACCTAGTGCAG,10000 fluorescence intensity (a.u.)
4,CGCCACCGCCACCGCCCGTCCACATCCGCCGGCGCCGATGCGGAGTCACCTAGTGCAG,9270 fluorescence intensity (a.u.)
5,CGCCATCCAGATCCCAACCGTCCACTCCCTACCCATCCAACGGAGTCACCTAGTGCAG,13000 fluorescence intensity (a.u.)
6,ACCTCCACCACCGCCTAATCTAGGTGCATGCTTTATTTACCGGAGTCACCTAGTGCAG,8510 fluorescence intensity (a.u.)
7,CTATACTATTAATATCTGGTCCTACCTGTTATACATACATCGGAGTCACCTAGTGCAG,8370 fluorescence intensity (a.u.)
8,ATAATCCGAGTGCTTCAATTTCTTCTGTATTGATCTCCCTCGGAGTCACCTAGTGCAG,8720 fluorescence intensity (a.u.)
9,TTCTACACTCTCTTGATCAGCTCTCACCACTATGTACACTCGGAGTCACCTAGTGCAG,8860 fluorescence intensity (a.u.)
10,CCGGTTTAGTTCTCGAAGATGTTCGTAGGGGTAGGATTTGCGGAGTCACCTAGTGCAG,11000 fluorescence intensity (a.u.)
11,GTATGTTTTTTTTTTCTTATTGATTTTATGGTAATTCTGTCGGAGTCACCTAGTGCAG,8930 fluorescence intensity (a.u.)
12,TCAGGTTCGTCAGGCGGCCCTAGCCAAAGCCTGCATTCATCGGAGTCACCTAGTGCAG,8680 fluorescence intensity (a.u.)
13,GTGATCCGGTGCCCTCTGACCCGCAACTTCCTTTTGGCACCGGAGTCACCTAGTGCAG,8460 fluorescence intensity (a.u.)
14,TTTGGTCGTCAAACAGTGATGACTCTCCTGGCCGCTGTCTCGGAGTCACCTAGTGCAG,8980 fluorescence intensity (a.u.)
15,CACTTGCTTATCTCAATCAACCACGTCATCTCTAATTTTACGGAGTCACCTAGTGCAG,8940 fluorescence intensity (a.u.)
16,ATGGGCGGGCAAGGGGCGTGGATAGGCGGAGTTGCCATACCGGAGTCACCTAGTGCAG,8790 fluorescence intensity (a.u.)
17,TTCAAGGTGACTCTTCCTATGCCCAGGGTCCAGTTTTTTCCGGAGTCACCTAGTGCAG,11500 fluorescence intensity (a.u.)
18,ACAAATCGAGGGTGCGTTCGTTCCTGGGAGGGGTTTATGTCGGAGTCACCTAGTGCAG,13200 fluorescence intensity (a.u.)
19,AGTGAATTGAGGGATTTATAGTGAACTTACTCCTTATCTTCGGAGTCACCTAGTGCAG,8060 fluorescence intensity (a.u.)
20,TCATTGCTCGTGTCCTTGTTCTACGCCTACGTTAGCTGTCCGGAGTCACCTAGTGCAG,9860 fluorescence intensity (a.u.)
21,AAATACACTTTACCTACCTATCACTGTTACTACTTTTTTCCGGAGTCACCTAGTGCAG,8410 fluorescence intensity (a.u.)
